Construct, isoform or probe ends are uncertain for at least one entry. Tags and fusion partners may be left off the protein sequences shown.
Molecular target: T1, SUVR5 zinc finger domain (aa 720-866) (Arabidopsis thaliana) (UniProt O64827)
T1 sequence: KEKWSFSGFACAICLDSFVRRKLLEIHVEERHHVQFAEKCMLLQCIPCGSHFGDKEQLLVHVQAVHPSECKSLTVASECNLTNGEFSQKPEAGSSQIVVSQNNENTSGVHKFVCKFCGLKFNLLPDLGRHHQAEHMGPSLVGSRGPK
Test: SELEX
Details: consensus from 10-cycle random SELEX and 9-cycle genomic SELEX; 25 mM HEPES pH 7.5, 50 mM KCl, 2.5 mM MgCl2, 1 uM ZnSO4, RT; purified recombinant protein; protein details: GST fusion (pDEST15)

## TACTAGTA (double strand) [SELEX consensus motif]
  selection result: selected
